# Measured values taken from patent US20210023083A1.
# The chains behind the UniProt entries cited, without tags or fusion partners. Residues count along the entry.
# UniProt Q9HB71, residues 2-228: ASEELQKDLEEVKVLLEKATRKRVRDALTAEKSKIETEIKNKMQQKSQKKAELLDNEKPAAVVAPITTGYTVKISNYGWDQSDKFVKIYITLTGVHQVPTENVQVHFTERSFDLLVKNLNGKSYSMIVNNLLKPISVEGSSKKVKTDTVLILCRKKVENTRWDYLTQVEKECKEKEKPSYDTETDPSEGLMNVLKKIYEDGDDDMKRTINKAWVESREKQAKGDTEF
# UniProt Q08AI8: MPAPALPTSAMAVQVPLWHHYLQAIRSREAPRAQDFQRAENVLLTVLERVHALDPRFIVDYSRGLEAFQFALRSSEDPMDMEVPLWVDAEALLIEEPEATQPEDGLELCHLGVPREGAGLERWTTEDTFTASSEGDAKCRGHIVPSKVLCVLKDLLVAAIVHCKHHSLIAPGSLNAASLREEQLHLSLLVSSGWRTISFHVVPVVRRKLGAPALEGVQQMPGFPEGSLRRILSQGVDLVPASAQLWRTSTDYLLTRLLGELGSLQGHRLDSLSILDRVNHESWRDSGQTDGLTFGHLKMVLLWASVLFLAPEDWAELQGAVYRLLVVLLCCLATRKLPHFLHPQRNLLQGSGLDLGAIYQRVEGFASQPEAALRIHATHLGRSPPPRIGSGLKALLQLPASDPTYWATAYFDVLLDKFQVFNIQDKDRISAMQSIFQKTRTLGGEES
# Biological target: calcyclin-binding protein (CacyBP) (human) (UniProt Q9HB71)
# Test: BioID proximity labelling in human skin organoids, streptavidin pull-down, mass spectrometry
substance,measurement,value
3×HA-BASU-MAB21L4 fusion protein (from UniProt Q08AI8 1-447),binding,binds

# No constants are given. Whether binding was seen depends on the method and setting. In cells and extracts the contact can be indirect. A yes stands for co-enrichment or nearness to the bait. Other partners may have been found.
